Test results: PubChem BioAssay AID1117319 (Southern Research Institute, 2015)
Several values for one entry are separate records, joined by “and”; a condition that tells them apart may be missing. Equal entries are not always repeated. The whole screen tested about 260,000 compounds, of which about 1,500 (0.58%) were called active. The inconclusive results got no clear call from the source; some entries with a clear call stand among them for comparison.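 Rule for the calls: active = inhibition above a set limit at one or more doses, reproduced on every date tested; inconclusive = results disagree between test dates, or hit never tested in dose response; inactive = the rest.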

Chains of the proteins cited; added tags and fusions are not shown. Lines headed by an entry give the natural chain unless they say otherwise; changes in a name come on top.
UniProt P69720: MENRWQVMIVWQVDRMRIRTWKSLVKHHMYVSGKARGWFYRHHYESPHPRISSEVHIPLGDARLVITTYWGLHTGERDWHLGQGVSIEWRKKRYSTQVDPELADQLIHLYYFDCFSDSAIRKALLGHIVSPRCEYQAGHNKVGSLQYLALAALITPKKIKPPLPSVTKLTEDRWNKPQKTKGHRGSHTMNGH
UniProt P69721: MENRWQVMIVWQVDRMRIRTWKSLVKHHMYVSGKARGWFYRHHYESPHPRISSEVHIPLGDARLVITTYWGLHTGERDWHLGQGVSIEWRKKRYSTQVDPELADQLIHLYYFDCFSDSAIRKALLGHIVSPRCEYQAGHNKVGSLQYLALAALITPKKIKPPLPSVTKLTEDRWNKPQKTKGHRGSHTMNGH
UniProt P69722: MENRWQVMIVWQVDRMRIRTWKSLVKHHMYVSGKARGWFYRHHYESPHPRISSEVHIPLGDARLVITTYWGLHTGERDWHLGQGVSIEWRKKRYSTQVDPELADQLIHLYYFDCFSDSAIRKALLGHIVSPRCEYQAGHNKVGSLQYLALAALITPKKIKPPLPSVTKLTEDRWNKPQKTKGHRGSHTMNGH
UniProt P69723: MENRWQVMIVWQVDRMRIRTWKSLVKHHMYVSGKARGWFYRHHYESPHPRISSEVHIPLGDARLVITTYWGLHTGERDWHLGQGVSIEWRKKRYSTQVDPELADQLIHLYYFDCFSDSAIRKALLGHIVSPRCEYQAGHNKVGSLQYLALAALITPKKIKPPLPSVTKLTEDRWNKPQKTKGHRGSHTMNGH
UniProt Q9HC16: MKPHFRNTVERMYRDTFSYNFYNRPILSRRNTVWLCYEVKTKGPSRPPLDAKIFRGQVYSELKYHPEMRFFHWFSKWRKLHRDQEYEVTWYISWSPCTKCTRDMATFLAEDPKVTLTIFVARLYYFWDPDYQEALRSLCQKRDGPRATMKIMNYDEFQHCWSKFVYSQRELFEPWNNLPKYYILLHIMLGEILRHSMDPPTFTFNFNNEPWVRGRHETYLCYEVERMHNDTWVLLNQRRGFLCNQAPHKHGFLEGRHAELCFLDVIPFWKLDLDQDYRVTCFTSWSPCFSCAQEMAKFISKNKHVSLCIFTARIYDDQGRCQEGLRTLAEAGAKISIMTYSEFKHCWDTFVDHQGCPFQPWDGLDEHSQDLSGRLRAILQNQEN

The molecules below were run against Virion infectivity factor (Human immunodeficiency virus type 1 group M subtype B (isolate BH10)) + Virion infectivity factor (Human immunodeficiency virus type 1 group M subtype B (isolate BRU/LAI)) + Virion infectivity factor (Human immunodeficiency virus type 1 group M subtype B (isolate PCV12)) + Virion infectivity factor (Human immunodeficiency virus type 1 group M subtype B (isolate HXB2)) + DNA dC->dU-editing enzyme APOBEC-3G (Homo sapiens) (UniProt P69720+P69721+P69722+P69723+Q9HC16) (assay: inhibitors of Vif binding to APOBEC3G peptide, primary screen, biochemical, TR-FRET, GST-Vif 1-94, biotin-A3G peptide, dose response retest (AID 1117319;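 note: Vif residues 1-94 fused to GST binding biotinylated APOBEC3G peptide 110-148; 0% = full assay without inhibitor and 100% = GST in place of GST-Vif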)). Conditions: stronger effect = higher value.
In the case of `COC(=O)c1ccc(NC(=O)c2ccc(C)cc2)o1`, the inhibition is reported as inconclusive: 57%. For `COC(=O)C1=C(C)NC(C)=C(C(=O)OC)C1C(=O)OCc1nc2cc(C(=O)OC)ccc2c(=O)[nH]1`, the inhibition was inactive: -5.82%. With `O=C1CCCN1CCC1CCCCN1Cc1nc(COc2ccccc2)no1` (stereo not given) the inhibition was inconclusive: 34.7%. With `Cc1onc(-c2ccccc2Cl)c1C(=O)N1C=CC(C(F)(F)F)=NCC1` the inhibition was inconclusive: 34.5%. In the case of `CC[C@H]1CN2CCc3cc(OC)c(OC)cc3[C@@H]2C[C@@H]1C[C@H]1NCCc2cc(OC)c(OC)cc21`, the inhibition is reported as inconclusive: 38.9%. `COc1cccc(CN(C(=O)Cn2nnc(-c3ccccc3F)n2)C(C(=O)NC(C)(C)C)c2ccncc2)c1` (stereo not given) was tested, and the inhibition was inconclusive: 33.1%. `O=S(=O)(Nc1ccc(Cl)cn1)c1cnc(Cl)c(Br)c1` was tested, and the inhibition was inconclusive: 45.1%. `COc1ccc(-n2c(CN3CCN(c4ccccn4)CC3)nc3ccc([N+](=O)[O-])cc3c2=O)c(OC)c1` was tested, and the inhibition was inconclusive: 51.2%. For `CC1Cc2nc(SCC(=O)NCC3CCCO3)n(Cc3ccccc3)c(=O)c2S1` (stereo not given), the inhibition was inconclusive: 40.3%. In the case of `O=C1S/C(=C\c2cccs2)C(=O)N1c1ccc(O)cc1`, the inhibition is reported as inactive: -10.4%. For `Cc1cc(OCCN2CCCC2)ccc1C(C)C`, the inhibition was inconclusive: 40.1%. `CN(C)c1ccc(Nc2nc(N)c([N+](=O)[O-])c(N3CCOCC3)n2)cc1` was tested, and the inhibition was inconclusive: 38.6%. For `CN(C1CCCCC1)S(=O)(=O)c1ccc(S(=O)(=O)N(CC(=O)Nc2ccccc2)C2CC2)cc1`, the inhibition was inconclusive: 63.7%. With `Cc1cc(Cl)c(S(=O)(=O)N2CCN(c3ccccc3)CC2)cc1OCC(N)=O` the inhibition was inconclusive: 36%. `O=C(CN(Cc1ccco1)C(=O)CNS(=O)(=O)c1ccc(F)cc1)NCc1ccco1` was tested, and the inhibition was inconclusive: 40%. `O=C(NNC(=S)NC(=O)c1ccccc1[N+](=O)[O-])c1ccccc1` was tested, and the inhibition was inconclusive: 37.3%. With `O=C1CCN(S(=O)(=O)c2ccccc2)N1` the inhibition was inconclusive: 37.8%. In the case of `O=C(COC(=O)c1cnccn1)Nc1ccc(Cl)cc1`, the inhibition is reported as inconclusive: 35.1%. For `CSc1ccccc1C(=O)NCC(c1ccco1)N1CCCCC1` (stereo not given), the inhibition was inconclusive: 51%. `O=C(NCCc1ccccc1)C1CCN(C2CCN(Cc3ccc(CO)o3)CC2)CC1` was tested, and the inhibition was inconclusive: 58%. With `O=C(NCCc1nnc2ccc(NCc3ccc(F)cc3)nn12)c1ccccc1` the inhibition was inconclusive: 57%. For `Cc1cc(SCC(=O)Nc2cccc(S(=O)(=O)NC3=NCCCCC3)c2)c(C)cc1Br`, the inhibition was inconclusive: 48.6%. In the case of `COCCn1c(=S)[nH]c2ccc(N(C)C)cc2c1=O`, the inhibition is reported as inconclusive: 46.6%. For `COC(=O)c1ccccc1NC(=O)C(C)NS(=O)(=O)c1ccc(OC)cc1` (stereo not given), the inhibition was inconclusive: 57.6%. In the case of `O=C(COC(=O)c1ccccc1NC(=O)c1ccco1)Nc1ncc(Cl)cc1Cl`, the inhibition is reported as inconclusive: 56.4%. For `O=C(N/N=C\c1ccc(COc2ccc([N+](=O)[O-])cc2)o1)c1ccc(Cl)cc1`, the inhibition was inconclusive: 53.9%. In the case of `COc1ccc(NC(=O)COc2cccc3c2OC(C)(C)C3)c(OC)c1`, the inhibition is reported as inconclusive: 33.3%. `Cc1[nH]c2ccc(-c3nnc(SCC(=O)NCc4ccco4)n3Cc3ccccc3)cc2c1C` was tested, and the inhibition was inconclusive: 39.3%. `CCOC(=O)c1c(C)[nH]c(C=Nc2ccc(OC)cc2)c1O` was tested, and the inhibition was inconclusive: 47.8%. `OCc1cn(-c2ccccc2)nc1-c1ccco1` was tested, and the inhibition was inconclusive: 57.1%. With `CC(C)(C)c1ccc(-c2cc(N)n[nH]2)cc1` the inhibition was inconclusive: 60.3%. `CCOc1ccc(CCNC(=O)CCc2c(C)nc3ncnn3c2C)cc1OCC` was tested, and the inhibition was inconclusive: 35.9%. `COC(=O)c1ccc(CSc2nc3c(c(=O)n2-c2ccc(Br)cc2)SCC3)o1` was tested, and the inhibition was inconclusive: 35.8%. `Cc1cc(C)n(CCc2nc(-c3ccco3)cs2)n1` was tested, and the inhibition was inconclusive: 61.4%. `Cc1cccc(C(=O)N2CCN(c3ccc(N4CCOCC4)nn3)CC2)c1` was tested, and the inhibition was inconclusive: 55.6%. With `CNC[C@H](O)c1cccc(O)c1` the inhibition was inactive: -0.43%. `C=C1CCC2C(C)(C)[C@H](O)CC[C@@]2(C)[C@@H]1COc1cc(=O)oc2ccccc12` (stereo not given in full) was tested, and the inhibition was inconclusive: 34.6%. `Nc1c(O)ccc2c1C(=O)c1ccccc1C2=O` was tested, and the inhibition was inactive: 10.2%. In the case of `On1nnc2c3ccccc3c3ccccc3c21`, the inhibition is reported as inactive: 0.98%. `O=[N+]([O-])c1cccc(Nc2nc(Cl)nc(Cl)n2)c1` was tested, and the inhibition was inconclusive: 52.1%. `COc1ccc(N=C2NC(=O)/C(=C\c3ccco3)S2)cc1` was tested, and the inhibition was inconclusive: 53.9%. With `COc1ccccc1CN(Cc1cc2c(C)ccc(C)c2[nH]c1=O)Cc1nnnn1Cc1ccco1` the inhibition was inconclusive: 32%. With `CC1(C)Cc2ccccc2C(C(=O)c2ccccc2)=N1` the inhibition was inactive: -10.3%. For `CCOC(=O)CNC(=O)c1cccs1`, the inhibition was inconclusive: 40.6%. For `Cc1ccc(NS(=O)(=O)c2ccc(C(=O)N3CCCC(C(F)(F)F)C3)cc2)cc1` (stereo not given), the inhibition was inactive: -6.68%. With `CCOC(=O)c1cc2c(ccn2C)n1CC(=O)N1CCC(Cc2ccccc2)CC1` the inhibition was inconclusive: 40.8%. `C=CCNC(=O)Nc1ccc2oc(C)nc2c1` was tested, and the inhibition was inconclusive: 36.8%. With `Cn1cnnc1SCC(=O)Nc1cc(S(=O)(=O)N2CCCCCC2)ccc1Cl` the inhibition was inconclusive: 34.5%. For `Cc1cc(OCC(=O)O/N=C(\N)Cc2cccs2)ccc1Br`, the inhibition was inconclusive: 55.4%. For `CCCCn1c(SCC(=O)NCCOC)nc2ccc(N3CCOCC3)cc2c1=O`, the inhibition was inactive: 32.1% and inactive: 5.24%. For `Fc1ccc(CNc2nc(-c3ccco3)cc(C(F)(F)F)n2)cc1`, the inhibition was inactive: 9.71%. In the case of `CNC(=O)CN(C1CCCCC1)S(=O)(=O)c1ccc(F)cc1`, the inhibition is reported as inactive: -2.39%. For `NC(=O)c1cc(N)ccc1N1CCCCC1`, the inhibition was inactive: -6.02%. For `C=CCn1c(SCC(=O)NCC(c2ccccc2)N(C)C)nnc1C1CCCCC1` (stereo not given), the inhibition was inconclusive: 43%. `Cc1c(NC(=O)Cc2noc3ccccc23)cccc1[N+](=O)[O-]` was tested, and the inhibition was inactive: -3.42%. For `O=C1CCCc2c1cc(C(=O)NCc1ccco1)c(=O)n2-c1ccccc1`, the inhibition was inconclusive: 8.25%. `Cc1ccccc1C(=O)Nc1nnc(CC(=O)N/N=C/c2cn(Cc3ccccc3)c3ccccc23)s1` was tested, and the inhibition was inconclusive: 57%. In the case of `O=C(/C=C/c1ccc2c(c1)OCO2)Nc1nc(-c2ccc(F)cc2F)cs1`, the inhibition is reported as inconclusive: 54.1%. `CCN1C(=O)CS/C1=N\S(=O)(=O)c1ccccc1` was tested, and the inhibition was inconclusive: 40.8%. With `COc1ccc(C2C(C(=O)c3sc(C)nc3C)=C(O)C(=O)N2CCCn2ccnc2)cc1OC` (stereo not given) the inhibition was inconclusive: 55.9%. With `O=C1CCNc2cc3ccccc3cc21` the inhibition was inconclusive: 57.5%. For `N=c1ccn(Cc2ccccc2Cl)cc1`, the inhibition was inconclusive: 60.1%. In the case of `O=[N+]([O-])c1cc(Oc2cccnc2)cc([N+](=O)[O-])c1`, the inhibition is reported as inconclusive: 60.7%. For `Cc1ccc(C(=O)N/C(=C/c2ccco2)C(=O)O)cc1`, the inhibition was inconclusive: 47.1%. `CCNc1nc(SC(C)C(=O)OC)nc(N2CCOCC2)n1` (stereo not given) was tested, and the inhibition was inactive: 2.4%. With `c1nc(N2CCCCC2)c2[nH]cnc2n1` the inhibition was inconclusive: 36.3%. In the case of `COC(=O)CSc1nc(N)nc(C)c1Cl`, the inhibition is reported as inactive: -8.89%. With `O=C(Cc1cccs1)Nc1nnc(Cc2ccccc2)s1` the inhibition was inconclusive: 43.5%. With `Cc1nn(-c2ccccn2)c2c1C(c1c(F)cccc1Cl)C1=C(N2)c2ccccc2C1=O` (stereo not given) the inhibition was inconclusive: 34%. In the case of `COc1ccc(NC(=O)/C(C#N)=C/c2ccc3c(c2)n(C)c(=O)n3C)cc1`, the inhibition is reported as inactive: 1.72%. In the case of `COc1cc(C(C)=O)ccc1OCC(O)CN1CCN(c2cc(C)cc(C)c2)CC1` (stereo not given), the inhibition is reported as inconclusive: 55%. For `c1ccc(CN2CCC(=NNc3nc4ccccc4[nH]3)CC2)cc1`, the inhibition was inconclusive: 38.5%. In the case of `Cc1cccc(N2NC(=O)/C(=C/c3ccc(-c4ccc(Cl)c(C(=O)O)c4)o3)C2=O)c1`, the inhibition is reported as inconclusive: 46%. For `COc1cc(SC)ccc1C(=O)Nc1ccccn1`, the inhibition was inconclusive: 60.7%. `Cc1cc(/C=N/NC(=O)C(O)(c2ccccc2)c2ccccc2)c(C)n1-c1ccc(C(=O)O)cc1` was tested, and the inhibition was inconclusive: 49%. For `c1ccc(CSc2snnc2-c2ccccc2)cc1`, the inhibition was inconclusive: 36.3%. With `Nc1ccc(O)c2c1C(=O)c1ccccc1C2=O` the inhibition was inconclusive: 62.8%. `O=C(NNc1nc2c(F)cccc2s1)c1cc(=O)c2ccccc2o1` was tested, and the inhibition was inactive: 21.6%. With `O=C(Nc1nc(-c2ccco2)cs1)c1ccccc1` the inhibition was inconclusive: 34.8%. `CCN(CC(=O)NC1CCS(=O)(=O)C1)c1nc(-c2ccccc2)nc2ccccc12` (stereo not given) was tested, and the inhibition was inconclusive: 4.97%. With `C/C(=N\NC(N)=O)c1ccc(Cl)s1` the inhibition was inconclusive: 35.2%. `O=C1c2ccccc2C(=O)N1c1nc2nccc(-c3ccccc3)n2n1` was tested, and the inhibition was inconclusive: 50.1%. For `COc1cc([C@@H]2c3cc4c(cc3[C@H](O)[C@H]3COC(=O)[C@H]23)OCO4)cc(OC)c1OC`, the inhibition was inconclusive: 38.5%. For `COc1ccc(Br)cc1C(=O)Nc1ccc(C(=O)O)cc1`, the inhibition was inconclusive: 40.4%. For `O=S(=O)(c1ccc(Cl)nc1)N1CCN(Cc2ccc3c(c2)OCO3)CC1`, the inhibition was inconclusive: 47.8%. `COc1ccc(C(=O)c2ccc(OC)cc2O)c(O)c1` was tested, and the inhibition was inactive: 4.6%. In the case of `CC(C)(C)CN1CCNC(=O)C1CC(=O)NCCN1CCCc2ccccc21` (stereo not given), the inhibition is reported as inactive: 20.1%. `CCn1c(SCC(=O)N/N=C/C=C\c2ccco2)nc2ccccc21` was tested, and the inhibition was inconclusive: 54.3%. `CC1CCCCC1NC(=O)COC(=O)c1c2c(nc3ccccc13)/C(=C\c1ccco1)CC2` (stereo not given) was tested, and the inhibition was inactive: 4.28%. In the case of `O=C(CN1CCN(c2ccccc2)CC1)Nc1c(C(=O)C2CC2)oc2ccccc12`, the inhibition is reported as inconclusive: 55.1%.
